Assay results reported in patent publication US8987207B2, “Peptides which have analgesic effects and which inhibit ASIC channels” (Centre National de la Recherche Scientifique—CNRS, priority 2010, dated 2015).
Not every detail of the peptide structures is certain; ends, links or a residue may be inferred. Bridges are numbered along the chain shown (N, C = ends). Where no end group is shown, it is not given here.

Protein sequences, listed by entry. Tags and fused reporters are not part of them.
UniProt O35433, whole entry: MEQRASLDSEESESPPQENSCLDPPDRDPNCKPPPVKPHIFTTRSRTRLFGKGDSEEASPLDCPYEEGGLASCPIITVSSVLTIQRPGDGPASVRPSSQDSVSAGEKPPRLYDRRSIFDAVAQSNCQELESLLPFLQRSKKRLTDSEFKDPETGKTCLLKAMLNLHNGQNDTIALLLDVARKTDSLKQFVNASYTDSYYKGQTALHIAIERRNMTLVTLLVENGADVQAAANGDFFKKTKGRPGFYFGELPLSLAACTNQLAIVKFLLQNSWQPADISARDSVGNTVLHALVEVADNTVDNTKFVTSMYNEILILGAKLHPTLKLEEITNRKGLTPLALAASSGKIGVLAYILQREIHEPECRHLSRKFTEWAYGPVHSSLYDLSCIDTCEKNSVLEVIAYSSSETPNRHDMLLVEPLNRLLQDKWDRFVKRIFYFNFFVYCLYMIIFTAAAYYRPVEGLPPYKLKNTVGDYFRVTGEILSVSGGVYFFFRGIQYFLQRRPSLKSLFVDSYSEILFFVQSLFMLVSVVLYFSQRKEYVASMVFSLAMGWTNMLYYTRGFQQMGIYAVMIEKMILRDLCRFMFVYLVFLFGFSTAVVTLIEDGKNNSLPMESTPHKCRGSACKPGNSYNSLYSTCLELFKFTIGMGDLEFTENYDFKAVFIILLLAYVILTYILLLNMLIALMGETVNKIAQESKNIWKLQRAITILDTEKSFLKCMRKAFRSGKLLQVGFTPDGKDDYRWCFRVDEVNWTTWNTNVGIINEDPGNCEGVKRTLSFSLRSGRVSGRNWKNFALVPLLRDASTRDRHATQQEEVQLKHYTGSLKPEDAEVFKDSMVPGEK

Legend:
[1] = molecular target: rat TRPV1 channels (Rattus norvegicus, UniProt O35433); assay: Rat TRPV1 current activated with capsaicin; assay type: cell-based; conditions: peptide 2 μM, capsaicin 1 μM
[2] = Acute thermal pain, tail withdrawal latency at 46° C. after intracerebroventricular injection; assay type: in vivo; conditions: mice

LKCYQHGKVVTCHRDMKFCYHNTGMPFRNLKLILQGCSSSCSETENNKCCSTDRCNK (disulfide 3-19, 12-37, 41-49, 50-55) [ASICalgin-1]
inhibition of the current produced by rat TRPV1 channels [1]: does not inhibit
analgesic effect on tail withdrawal latency ([2]; ICV injection 0.34 nmol, maintained 67 min): powerful analgesic effect
effect of naloxone pretreatment on the analgesic effect ([2]; ICV, naloxone 2 mg/kg sc 10 min before): not modified
duration of the analgesic effect ([2]; ICV, until tail withdrawal latency returns to control value): persists for several hours
